Laboratory results reported in PubChem BioAssay AID330 (DTP/NCI, 2004).
The list shows only some results of the screen, not a fair sample: it gathers tests that were run many times, whatever their T/C, doses with no T/C, and many T/C values between a quarter and a half above the control. Other doses and runs of a compound stand elsewhere. T/C is the treated group as % of the vehicle group. Some entries give survivors of the animals treated and no T/C: the source holds a T/C of zero for them, seemingly a mark for toxic or unscored doses. Some doses without a T/C left all or most animals alive at the check, yet need not have been tolerated: the source hardly ever lists a survival T/C far under the control, and the zero likely stands for such cases as well. Counts of survivors are from the toxicity check (mostly the fifth day) where no day follows; animals may have died later. Schedules are NCI's codes, taken here to give the interval after Q, in days (D) or hours (H), and the number of doses after X. For survival time, this PubChem deposit counts one and a half times the control or more as active, and values a quarter to a half above the control carry no call in these data; other NCI protocols may use other cut-offs. Some entries hold several experiments; their values stand side by side, smallest first.

Test system: P388 leukemia ip, CD2F1 mice, survival T/C
Assay: NCI In Vivo Anticancer Drug Screen. Data for tumor model P388 Leukemia (intraperitoneal) in CD2F1 (CDF1) mice
Settings: T/C endpoint: median survival time, higher T/C = longer survival
[1] = dose: 240.0 mg/kg/injection, schedule: Q01DX005 (ip), vehicle: saline with Tween-80
[2] = dose: 50.0 mg/kg/injection, schedule: Q01DX009 (ip), vehicle: saline with Tween-80
[3] = dose: 100.0 mg/kg/injection, schedule: Q01DX009 (ip), vehicle: saline with Tween-80
[4] = dose: 200.0 mg/kg/injection, schedule: Q01DX009 (ip), vehicle: saline with Tween-80
[5] = dose: 240.0 mg/kg/injection, schedule: Q01DX005 (ip), vehicle: Klucel (hydroxypropylcellulose) (HPC)
[6] = dose: 50.0 mg/kg/injection, schedule: Q01DX005 (ip), vehicle: saline
[7] = dose: 200.0 mg/kg/injection, schedule: Q01DX005 (ip), vehicle: saline
[8] = dose: 100.0 mg/kg/injection, schedule: Q01DX005 (ip), vehicle: saline with Tween-80
[9] = dose: 200.0 mg/kg/injection, schedule: Q01DX005 (ip), vehicle: saline with Tween-80

C[Si](CCCNCCN)(O[Si](C)(CCCNCCN)c1ccccc1)c1ccccc1 (stereo unspecified)
survivor count (dose: 60.0 mg/kg/injection, schedule: Q01DX005 (ip), vehicle: saline with Tween-80): 4 of 6
survivor count (dose: 120.0 mg/kg/injection, schedule: Q01DX005 (ip), vehicle: saline with Tween-80): 6 of 6
survivor count [1]: 0 of 6

C=CCC1OC(=O)CCNC(=O)C(C)N(C)C(=O)C(C(C)C)N(C)C(=O)C(C(C)CC)NC(=O)C2CCCN2C1=O (stereo unspecified)
survivor count (dose: 25.0 mg/kg/injection, schedule: Q01DX005 (ip), vehicle: distilled water + Tween-80): 0 of 6
survivor count (dose: 50.0 mg/kg/injection, schedule: Q01DX005 (ip), vehicle: distilled water + Tween-80): 0 of 6
survivor count (dose: 100.0 mg/kg/injection, schedule: Q01DX005 (ip), vehicle: distilled water + Tween-80): 0 of 6
survivor count (dose: 200.0 mg/kg/injection, schedule: Q01DX005 (ip), vehicle: distilled water + Tween-80): 0 of 6

NC(CCCc1ccc(N(CCCl)CCCl)cc1)C(=O)O (stereo unspecified)
survivor count [2]: 0 of 6
survivor count [3]: 0 of 6
survivor count [4]: 0 of 6

O=C(Nc1ccc(C2=NCCN2)cc1)c1ccc(NC(=O)c2ccc(C3=NCCN3)cc2)cc1
T/C (dose: 40.0 mg/kg/injection, schedule: Q01DX010 (ip), vehicle: saline): 136 % of control
T/C (dose: 60.0 mg/kg/injection, schedule: Q01DX010 (ip), vehicle: saline): 145 % of control

C/C(=N\OCC(O)CNCCNC(=O)C(C)C)c1ccc(N(C)C)cc1 (stereo unspecified)
survivor count [5]: 0 of 6

N#CC1(N2CCCCC2)CCCCC1
survivor count (dose: 12.5 mg/kg/injection, schedule: Q01DX009 (ip), vehicle: Klucel (hydroxypropylcellulose) (HPC)): 0 of 6
survivor count (dose: 25.0 mg/kg/injection, schedule: Q01DX009 (ip), vehicle: Klucel (hydroxypropylcellulose) (HPC)): 0 of 6
survivor count (dose: 50.0 mg/kg/injection, schedule: Q01DX009 (ip), vehicle: Klucel (hydroxypropylcellulose) (HPC)): 0 of 6
survivor count (dose: 100.0 mg/kg/injection, schedule: Q01DX009 (ip), vehicle: Klucel (hydroxypropylcellulose) (HPC)): 0 of 6

CN(CCC[NH-])CCC[NH-].[Cl][Pd][Cl]
survivor count (dose: 100.0 mg/kg/injection, schedule: Q04DX002 (ip), vehicle: saline): 3 of 6
survivor count (dose: 200.0 mg/kg/injection, schedule: Q04DX002 (ip), vehicle: saline): 0 of 6
survivor count (dose: 400.0 mg/kg/injection, schedule: Q04DX002 (ip), vehicle: saline): 0 of 6

COc1ccc2c(c1)OC(C)(C)[C@H](c1ccc(O)cc1)[C@@H]2c1ccccc1
survivor count [1]: 6 of 6

CCCCN(CCCC)CC(O)c1cc(-c2ccc(Cl)cc2)nc2c(Cl)cc(Cl)cc12 (stereo unspecified)
survivor count (dose: 240.0 mg/kg/injection, schedule: Q01DX005 (ip), vehicle: Klucel + Tween-80): 6 of 6

Cn1c(=O)c2c(ncn2-c2ccc(N)cc2)n(C)c1=O
survivor count (dose: 100.0 mg/kg/injection, schedule: Q01DX005 (ip), vehicle: water): 4 of 5
survivor count (dose: 200.0 mg/kg/injection, schedule: Q01DX005 (ip), vehicle: water): 0 of 5

CC(C)=CC(=O)OC1C2C(C)=CC(O)C(O)C2(C)C2C3(O)OCC24C(CC(=O)OC14)C(C)C3O (stereo unspecified)
T/C (dose: 0.25 mg/kg/injection, schedule: Q01DX005 (ip), vehicle: distilled water + Tween-80): 126 % of control
T/C (dose: 0.38 mg/kg/injection, schedule: Q01DX009 (ip), vehicle: saline with Tween-80): 142 % of control
T/C (dose: 0.5 mg/kg/injection, schedule: Q01DX005 (ip), vehicle: distilled water + Tween-80): 135 % of control
T/C (dose: 0.62 mg/kg/injection, schedule: Q01DX005 (ip), vehicle: distilled water + Tween-80): 141 % of control
T/C (dose: 1.25 mg/kg/injection, schedule: Q01DX005 (ip), vehicle: distilled water + Tween-80): 140 % of control
T/C (dose: 1.5 mg/kg/injection, schedule: Q01DX009 (ip), vehicle: saline with Tween-80): 133 % of control
T/C (dose: 2.5 mg/kg/injection, schedule: Q01DX005 (ip), vehicle: distilled water + Tween-80): 148 % of control
T/C (dose: 3.0 mg/kg/injection, schedule: Q01DX009 (ip), vehicle: saline with Tween-80): 133 % of control
survivor count (dose: 10.0 mg/kg/injection, schedule: Q01DX005 (ip), vehicle: distilled water + Tween-80): 4 of 5

CC(=O)OCN(C)N=Nc1ccc(Br)cc1
survivor count (dose: 144.0 mg/kg/injection, schedule: Q01DX005 (ip), vehicle: Klucel (hydroxypropylcellulose) (HPC)): 6 of 6

O=C1C=CCCCC1
survivor count [3]: 4 of 6
survivor count (dose: 150.0 mg/kg/injection, schedule: Q01DX009 (ip), vehicle: saline with Tween-80): 3 of 6

NNS(=O)(=O)c1ccc(Cl)cc1
survivor count (dose: 300.0 mg/kg/injection, schedule: Q01DX009 (ip), vehicle: other): 1 of 6

CN1CCCCC1CCN1c2ccccc2Sc2ccc(S(C)=O)cc21 (stereo unspecified)
T/C [6]: 100, 102, 107, 124 % of control
survivor count (dose: 100.0 mg/kg/injection, schedule: Q01DX005 (ip), vehicle: saline): 0 of 6
survivor count [7]: 0 of 6

CC(=NC(C)C)Nc1ccc(Cl)cc1
survivor count [2]: 6 of 6
survivor count [3]: 1 of 6
survivor count [4]: 3 of 6

Cn1c(=O)[nH]c(N)c(C(=O)CCl)c1=O
survivor count [1]: 0 of 6

NC1[N-]C(C2CCCC[N-]2)CC2CCCCC21.NC1[N-]C(C2CCCC[N-]2)CC2CCCCC21.O=[N+]([O-])O.[Cu+2] (stereo unspecified)
survivor count (dose: 25.0 mg/kg/injection, schedule: Q04DX002 (ip), vehicle: suspension in saline): 1 of 6
survivor count (dose: 100.0 mg/kg/injection, schedule: Q04DX002 (ip), vehicle: suspension in saline): 0 of 6
survivor count (dose: 200.0 mg/kg/injection, schedule: Q04DX002 (ip), vehicle: suspension in saline): 0 of 6
survivor count (dose: 400.0 mg/kg/injection, schedule: Q04DX002 (ip), vehicle: suspension in saline): 0 of 6

COc1ccc(S(=O)(=O)NNS(=O)(=O)c2ccc(OC)c(OC)c2)cc1OC
survivor count [8]: 6 of 6
survivor count [9]: 6 of 6

CCCCCCCCCCCCC(O)CCC1CCCCN1 (stereo unspecified)
survivor count [7]: 0 of 6

CN1C=C([N+](=O)[O-])C(N2CCOCC2)C1N1CCOCC1 (stereo unspecified)
survivor count [5]: 1 of 6

O=S1(=O)C(CCCCC2=Cc3ccccc3S2(=O)=O)=Cc2ccccc21
survivor count [9]: 6 of 6

O=[Te]=O
survivor count (dose: 25.0 mg/kg/injection, schedule: Q01DX005 (ip), vehicle: saline): 6 of 6
survivor count [6]: 0 of 6

C=CCSc1ncnc2nc[nH]c12
survivor count [4]: 3 of 6
survivor count (dose: 400.0 mg/kg/injection, schedule: Q04DX003 (ip), vehicle: saline with Tween-80): 0 of 6

Ic1ccc2c(c1)N(c1ccccc1)c1cc(N=c3ccc4nc5ccc(I)cc5n(-c5ccccc5)c-4c3)ccc1N2
survivor count (dose: 400.0 mg/kg/injection, schedule: Q01DX009 (ip), vehicle: Klucel (hydroxypropylcellulose) (HPC)): 6 of 6

Cc1c(COC(=O)NC(C)C)c(COC(=O)NC(C)C)c2n1CS(=O)C2 (stereo unspecified)
T/C (dose: 50.0 mg/kg/injection, schedule: Q01DX005 (ip), vehicle: saline with Tween-80): 126 % of control
T/C [8]: 130 and 132 % of control
survivor count (dose: 400.0 mg/kg/injection, schedule: Q01DX005 (ip), vehicle: saline with Tween-80): 3 of 6
